Reference: PubChem BioAssay AID652243 (Drosophila RNAi Screening Center, 2013)
The screen tested about 24,000 reagents; below is a random part of those with a known target gene and a result. Over the whole deposit, 246 (1%) got an active call. 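Plates not normalised; calls are printed but the firefly/Renilla ratio behind them is not deposited; fold cut for lowering reported inconsistently.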 Raw values vary from plate to plate and are shown uncorrected. Unmarked entries are inactive. Not given: the amount of reagent.

Screen: 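Knock-downs that decrease or increase androgen receptor reporter signal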 (primary screen)
Cells: Drosophila S2R+ cells
Reagents: long dsRNA against Drosophila genes
Timing: 72 h (48 h, then 24 h hormone)
Challenge: synthetic androgen R1881 at 10 nM for 24 h
Measured: 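Per-well raw luminescence of the androgen-driven firefly reporter and of the Renilla control, two replicates each, without normalisation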
Direction: firefly reporter light: higher = more light from androgen-responsive reporter; Renilla control light: higher = more constitutive control signal (cell number, transfection)
Hit rule: 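Hit when the log firefly-to-Renilla ratio dropped or increased by a fixed fold versus the mean of GFP or LacZ controls across duplicate plates; lowering cut given as 1.5 and as 3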
Calls: active = hit: reporter lowered or raised; inactive = no hit

gene | amplicon | firefly reporter light, replicate 1 | firefly reporter light, replicate 2 | Renilla control light, replicate 1 | Renilla control light, replicate 2
CG18179 (GeneID 39124) | DRSC10303 | 1.26e5 | 1.62e5 | 1.92e6 | 1.69e6
CG18179 (GeneID 39124) | DRSC25528 | 7.15e5 | 5.80e5 | 8.04e5 | 1.08e6
CG3061 (GeneID 41707) | DRSC15460 | 96238 | 66459 | 2.07e6 | 1.17e6
CG3061 (GeneID 41707) | DRSC26419 | 3.21e5 | 2.56e5 | 7.10e5 | 4.06e5
CG15461 (GeneID 50122) | DRSC20532 | 1.52e5 | 1.34e5 | 4.09e5 | 1.89e5
CG1677 (GeneID 31662) | DRSC18116 | 2.20e5 | 2.69e5 | 3.68e6 | 4.49e6
CG5953 (GeneID 34985) | DRSC01546 | 1.59e5 | 2.64e5 | 7.25e5 | 6.03e5
CG5953 (GeneID 34985) | DRSC28725 | 4.86e5 | 3.47e5 | 1.13e6 | 1.16e6

Continued (2 carried over from the part before).
gene | amplicon | firefly reporter light, replicate 1 | firefly reporter light, replicate 2 | Renilla control light, replicate 1 | Renilla control light, replicate 2
CG5953 (GeneID 34985) | DRSC01546 | 1.59e5 | 2.64e5 | 7.25e5 | 6.03e5
CG5953 (GeneID 34985) | DRSC28725 | 4.86e5 | 3.47e5 | 1.13e6 | 1.16e6
f (GeneID 32718) | DRSC19174 | 5.71e5 | 8.12e5 | 2.46e6 | 3.16e6
f (GeneID 32718) | DRSC19516 | 1.97e5 | 2.02e5 | 3.32e6 | 2.61e6
f (GeneID 32718) | DRSC20331 | 3.06e5 | 3.24e5 | 2.88e6 | 2.69e6
f (GeneID 32718) | DRSC25251 | 5.74e5 | 3.54e5 | 6.57e5 | 5.19e5
f (GeneID 32718) | DRSC28735 | 5.37e5 | 5.29e5 | 1.46e6 | 1.61e6
ps (GeneID 44258) | DRSC15149 | 1.02e5 | 60295 | 1.45e6 | 2.16e6
ps (GeneID 44258) | DRSC16388 | 1.81e5 | 1.93e5 | 2.22e6 | 2.26e6
ps (GeneID 44258) | DRSC22989 | 4.44e5 | 4.69e5 | 1.41e6 | 1.61e6
ps (GeneID 44258) | DRSC29315 | 6.15e5 | 4.16e5 | 1.18e6 | 1.18e6
ps (GeneID 44258) | DRSC29574 | 7.09e5 | 9.73e5 | 1.24e6 | 1.24e6
Cpr65Aw (GeneID 38706) | DRSC08794 | 4.41e5 | 3.34e5 | 1.04e5 | 62673
CG8160 (GeneID 36701) | DRSC07086 | 3.16e5 | 3.65e5 | 2.52e6 | 2.46e6
CG8160 (GeneID 36701) | DRSC21434 | 6.24e5 | 7.08e5 | 2.97e6 | 2.14e6
CG8160 (GeneID 36701) | DRSC24130 | 5.27e5 | 6.13e5 | 5.99e5 | 7.31e5
Prestin (GeneID 39996) | DRSC10507 | 1.74e5 | 1.31e5 | 1.45e6 | 1.20e6
Pbp95 (GeneID 40949) | DRSC15448 | 57456 | 66326 | 1.27e6 | 1.51e6
Pbp95 (GeneID 40949) | DRSC27283 | 5.68e5 | 5.34e5 | 1.99e5 | 1.79e5
